Data published in patent US20180320217A1, “METHODS FOR SAMPLING AND MEASURING ORAL LAVAGE PROTEINS” (The Procter & Gamble Company, priority 2017, published 2018).

B1: INVO_HUMAN (protein, UniProt P07476 1-585, looked up)
Involucrin: MSQQHTLPVTLSPALSQELLKTVPPPVNTHQEQMKQPTPLPPPCQKVPVELPVEVPSKQEEKHMTAVKGLPEQECEQQQKEPQEQELQQQHWEQHEEYQKAENPEQQLKQEKTQRDQQLNKQLEEEKKLLDQQLDQELVKRDEQLGMKKEQLLELPEQQEGHLKHLEQQEGQLKHPEQQEGQLELPEQQEGQLELPEQQEGQLELPEQQEGQLELPEQQEGQLELPEQQEGQLELPQQQEGQLELSEQQEGQLELSEQQEGQLKHLEHQEGQLEVPEEQMGQLKYLEQQEGQLKHLDQQEKQPELPEQQMGQLKHLEQQEGQPKHLEQQEGQLEQLEEQEGQLKHLEQQEGQLEHLEHQEGQLGLPEQQVLQLKQLEKQQGQPKHLEEEEGQLKHLVQQEGQLKHLVQQEGQLEQQERQVEHLEQQVGQLKHLEEQEGQLKHLEQQQGQLEVPEQQVGQPKNLEQEEKQLELPEQQEGQVKHLEKQEAQLELPEQQVGQPKHLEQQEKHLEHPEQQDGQLKHLEQQEGQLKDLEQQKGQLEQPVFAPAPGQVQDIQPALPTKGEVLLPVEHQQQKQEVQWPPKHK
B2: TRFL_HUMAN (protein, UniProt P02788 20-710, looked up)
Lactotransferrin: GRRRSVQWCAVSQPEATKCFQWQRNMRKVRGPPVSCIKRDSPIQCIQAIAENRADAVTLDGGFIYEAGLAPYKLRPVAAEVYGTERQPRTHYYAVAVVKKGGSFQLNELQGLKSCHTGLRRTAGWNVPIGTLRPFLNWTGPPEPIEAAVARFFSASCVPGADKGQFPNLCRLCAGTGENKCAFSSQEPYFSYSGAFKCLRDGAGDVAFIRESTVFEDLSDEAERDEYELLCPDNTRKPVDKFKDCHLARVPSHAVVARSVNGKEDAIWNLLRQAQEKFGKDKSPKFQLFGSPSGQKDLLFKDSAIGFSRVPPRIDSGLYLGSGYFTAIQNLRKSEEEVAARRARVVWCAVGEQELRKCNQWSGLSEGSVTCSSASTTEDCIALVLKGEADAMSLDGGYVYTAGKCGLVPVLAENYKSQQSSDPDPNCVDRPVEGYLAVAVVRRSDTSLTWNSVKGKKSCHTAVDRTAGWNIPMGLLFNQTGSCKFDEYFSQSCAPGSDPRSNLCALCIGDEQGENKCVPNSNERYYGYTGAFRCLAENAGDVAFVKDVTVLQNTDGNNNEAWAKDLKLADFALLCLDGKRKPVTEARSCHLAMAPNHAVVSRMDKVERLKQVLLHQQAKFGRNGSDCPDKFCLFQSETKNLLFNDNTECLARLHGKTTYEKYLGPQYVAGITNLKKCSTSPLLEACEFLRK
B3: ILEU_HUMAN (protein, UniProt P30740 1-379, looked up)
Leukocyte elastase inhibitor: MEQLSSANTRFALDLFLALSENNPAGNIFISPFSISSAMAMVFLGTRGNTAAQLSKTFHFNTVEEVHSRFQSLNADINKRGASYILKLANRLYGEKTYNFLPEFLVSTQKTYGADLASVDFQHASEDARKTINQWVKGQTEGKIPELLASGMVDNMTKLVLVNAIYFKGNWKDKFMKEATTNAPFRLNKKDRKTVKMMYQKKKFAYGYIEDLKCRVLELPYQGEELSMVILLPDDIEDESTGLKKIEEQLTLEKLHEWTKPENLDFIEVNVSLPRFKLEESYTLNSDLARLGVQDLFNSSKADLSGMSGARDIFISKIVHKSFVEVNEEGTEAAAATAGIATFCMLMPEENFTADHPFLFFIRHNSSGSILFLGRFSSP
B4: MIF_HUMAN (protein, UniProt P14174 2-115, looked up)
Macrophage migration …: PMFIVNTNVPRASVPDGFLSELTQQLAQATGKPPQYIAVHVVPDQLMAFGGSSEPCALCSLHSIGKIGGAQNRSYSKLLCGLLAERLRISPDRVYINYYDMNAANVGWNNSTFA
B5: CAPG_HUMAN (protein, UniProt P40121 1-348, looked up)
Macrophage-capping protein: MYTAIPQSGSPFPGSVQDPGLHVWRVEKLKPVPVAQENQGVFFSGDSYLVLHNGPEEVSHLHLWIGQQSSRDEQGACAVLAVHLNTLLGERPVQHREVQGNESDLFMSYFPRGLKYQEGGVESAFHKTSTGAPAAIKKLYQVKGKKNIRATERALNWDSFNTGDCFILDLGQNIFAWCGGKSNILERNKARDLALAIRDSERQGKAQVEIVTDGEEPAEMIQVLGPKPALKEGNPEEDLTADKANAQAAALYKVSDATGQMNLTKVADSSPFALELLISDDCFVLDNGLCGKIYIWKGRKANEKERQAALQVAEGFISRMQYAPNTQVEILPQGHESPIFKQFFKDWK
B6: MDHM_HUMAN (protein, UniProt P40926 25-338, looked up)
Malate dehydrogenase, …: AKVAVLGASGGIGQPLSLLLKNSPLVSRLTLYDIAHTPGVAADLSHIETKAAVKGYLGPEQLPDCLKGCDVVVIPAGVPRKPGMTRDDLFNTNATIVATLTAACAQHCPEAMICVIANPVNSTIPITAEVFKKHGVYNPNKIFGVTTLDIVRANTFVAELKGLDPARVNVPVIGGHAGKTIIPLISQCTPKVDFPQDQLTALTGRIQEAGTEVVKAKAGAGSATLSMAYAGARFVFSLVDAMNGKEGVVECSFVKSQETECTYFSTPLLLGKKGIEKNLGIGKVSSFEEKMISDAIPELKASIKKGEDFVKTLK
B7: MOES_HUMAN (protein, UniProt P26038 2-577, looked up)
Moesin: PKTISVRVTTMDAELEFAIQPNTTGKQLFDQVVKTIGLREVWFFGLQYQDTKGFSTWLKLNKKVTAQDVRKESPLLFKFRAKFYPEDVSEELIQDITQRLFFLQVKEGILNDDIYCPPETAVLLASYAVQSKYGDFNKEVHKSGYLAGDKLLPQRVLEQHKLNKDQWEERIQVWHEEHRGMLREDAVLEYLKIAQDLEMYGVNYFSIKNKKGSELWLGVDALGLNIYEQNDRLTPKIGFPWSEIRNISFNDKKFVIKPIDKKAPDFVFYAPRLRINKRILALCMGNHELYMRRRKPDTIEVQQMKAQAREEKHQKQMERAMLENEKKKREMAEKEKEKIEREKEELMERLKQIEEQTKKAQQELEEQTRRALELEQERKRAQSEAEKLAKERQEAEEAKEALLQASRDQKKTQEQLALEMAELTARISQLEMARQKKESEAVEWQQKAQMVQEDLEKTRAELKTAMSTPHVAEPAENEQDEQDENGAEASADLRADAMAKDRSEEERTTEAEKNERVQKHLKALTSELANARDESKKTANDMIHAENMRLGRDKYKTLRQIRQGNTKQRIDEFESM
B8: PERM_HUMAN (protein, UniProt P05164 165-745, looked up)
Myeloperoxidase: VTCPEQDKYRTITGMCNNRRSPTLGASNRAFVRWLPAEYEDGFSLPYGWTPGVKRNGFPVALARAVSNEIVRFPTDQLTPDQERSLMFMQWGQLLDHDLDFTPEPAARASFVTGVNCETSCVQQPPCFPLKIPPNDPRIKNQADCIPFFRSCPACPGSNITIRNQINALTSFVDASMVYGSEEPLARNLRNMSNQLGLLAVNQRFQDNGRALLPFDNLHDDPCLLTNRSARIPCFLAGDTRSSEMPELTSMHTLLLREHNRLATELKSLNPRWDGERLYQEARKIVGAMVQIITYRDYLPLVLGPTAMRKYLPTYRSYNDSVDPRIANVFTNAFRYGHTLIQPFMFRLDNRYQPMEPNPRVPLSRVFFASWRVVLEGGIDPILRGLMATPAKLNRQNQIAVDEIRERLFEQVMRIGLDLPALNMQRSRDHGLPGYNAWRRFCGLPQPETVGQLGTVLRNLKLARKLMEQYGTPNNIDIWMGGVSEPLKRKGRVGPLLACIIGTQFRKLRDGDRFWWENEGVFSMQQRQALAQISLPRIICDNTGITTVSKNNIFMSNSYPRDFVNCSTLPALNLASWREAS

Test system: peptides in gingival brush samples
Test: Protein and peptide profiling of gingival brush samples (LC-MS/MS), TABLE 23
Assay type: in vivo, human
Settings: peptide abundance, gingival brush samples; for Mean Cntl Bsl / Mean Cntl Wk3: control regimen; for Mean Cntl Bsl / Mean TrtBsl: baseline; for Mean TrtBsl / Mean TrtWk3: treatment regimen; for Mean TrtWk3 / Mean Cntl Wk3: week 3

Molecule | Mean Cntl Bsl | Mean TrtBsl | Mean TrtWk3 | Mean Cntl Wk3
B1 | 58457.2 | 52897.6 | 80754.6 | 
B2 | 13672.9 | 15434.5 | 7532.6 | 6956.6
B3 | 8769.7 | 9351.4 | 19761.2 | 8901.6
B4 | 8319.5 | 5332.4 | 10109.7 | 11969.6
B5 | 25960.8 | 29622.1 | 46989.5 | 42118.2
B6 | 2848.8 | 1778.0 | 4639.0 | 3731.2
B7 | 2186.3 | 3594.1 | 2149.5 | 2082.8
B8 | 25181.7 | 28386.8 | 16648.3 | 20462.4
